Where two headings read alike, the source gives them in different places. Results are given in words; binding and its absence hold for the method and conditions named. Binding seen in cells or lysates may run through a third protein. Some results given as binding are weak or reduced against the parent protein; the word gives no strength. For part of these data: Tags and fused reporters may be left off the sequences shown. Blank lines part the entries; values can stand above or below the molecule they belong to.
Legend:
[1] = target: CUL4B (endogenous) (human (endogenous in MCF-7, MDA-MB-231, HEK293T)) (UniProt Q13620); assay: co-IP; endogenous proteins, MCF-7 whole-cell lysates (50 mM Tris-HCl pH 8.0, 150 mM NaCl, 0.5% NP40); IP with anti-CUL4B, anti-DDB1 or anti-ROC1, 12 h at 4 °C, immunoblot
[2] = target: DDB1 (endogenous) (human (endogenous in MCF-7, MDA-MB-231, HEK293T)) (UniProt Q16531); assay: as above
[3] = target: GST-fused DDB1 (UniProt Q16531); assay: pull-down; GST fusion proteins on Glutathione Sepharose 4B beads incubated with in vitro transcribed/translated products; 75 mM NaCl, 50 mM HEPES pH 7.9, 4 °C, 2 h; western blot; only the target purified
[4] = target: GST-fused MTA1 (UniProt Q13330); assay: as above
[5] = target: GST-fused MTA2 (UniProt O94776); assay: as above
[6] = target: T1, GST-fused MTA3 (UniProt Q9BTC8); assay: as above
T1 sequence: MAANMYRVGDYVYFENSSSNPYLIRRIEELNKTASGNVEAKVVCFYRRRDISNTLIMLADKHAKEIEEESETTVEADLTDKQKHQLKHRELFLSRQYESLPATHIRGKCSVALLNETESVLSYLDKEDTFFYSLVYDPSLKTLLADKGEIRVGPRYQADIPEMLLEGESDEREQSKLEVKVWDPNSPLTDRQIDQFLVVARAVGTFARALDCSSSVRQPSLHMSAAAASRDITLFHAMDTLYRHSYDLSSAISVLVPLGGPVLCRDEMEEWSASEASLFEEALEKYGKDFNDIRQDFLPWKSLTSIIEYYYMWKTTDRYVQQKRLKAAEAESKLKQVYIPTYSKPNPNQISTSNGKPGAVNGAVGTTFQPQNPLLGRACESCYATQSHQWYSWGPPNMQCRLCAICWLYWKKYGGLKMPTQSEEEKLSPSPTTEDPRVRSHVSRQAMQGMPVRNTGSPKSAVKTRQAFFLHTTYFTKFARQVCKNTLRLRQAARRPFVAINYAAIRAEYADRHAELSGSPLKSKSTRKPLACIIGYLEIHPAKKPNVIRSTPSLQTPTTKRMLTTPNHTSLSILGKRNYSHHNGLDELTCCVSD

The chains behind the UniProt entries cited, without tags or fusion partners.
UniProt Q13620: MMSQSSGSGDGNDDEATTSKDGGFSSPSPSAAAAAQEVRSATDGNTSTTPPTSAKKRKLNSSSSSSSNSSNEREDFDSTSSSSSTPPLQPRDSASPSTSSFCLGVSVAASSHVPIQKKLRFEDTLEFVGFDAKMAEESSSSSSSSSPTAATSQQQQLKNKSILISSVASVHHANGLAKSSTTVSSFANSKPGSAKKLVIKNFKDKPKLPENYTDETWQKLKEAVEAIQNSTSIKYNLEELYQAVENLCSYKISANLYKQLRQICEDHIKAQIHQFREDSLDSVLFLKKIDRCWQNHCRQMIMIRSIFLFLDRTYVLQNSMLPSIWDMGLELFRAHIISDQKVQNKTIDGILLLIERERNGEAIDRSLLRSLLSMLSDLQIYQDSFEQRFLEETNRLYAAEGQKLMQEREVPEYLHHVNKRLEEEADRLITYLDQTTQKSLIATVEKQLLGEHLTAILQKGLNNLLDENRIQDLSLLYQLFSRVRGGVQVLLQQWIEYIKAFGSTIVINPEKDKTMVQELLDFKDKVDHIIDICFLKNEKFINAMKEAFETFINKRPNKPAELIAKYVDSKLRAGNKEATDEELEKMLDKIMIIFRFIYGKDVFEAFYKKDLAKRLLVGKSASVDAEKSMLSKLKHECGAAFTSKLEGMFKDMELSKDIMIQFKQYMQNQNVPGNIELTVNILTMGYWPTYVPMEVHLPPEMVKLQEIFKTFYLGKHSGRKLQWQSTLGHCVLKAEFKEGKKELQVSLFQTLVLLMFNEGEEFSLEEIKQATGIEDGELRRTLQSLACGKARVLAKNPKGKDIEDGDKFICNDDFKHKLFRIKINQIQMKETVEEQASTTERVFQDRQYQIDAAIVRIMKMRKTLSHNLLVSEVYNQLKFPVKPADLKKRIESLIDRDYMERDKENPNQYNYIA
UniProt Q16531: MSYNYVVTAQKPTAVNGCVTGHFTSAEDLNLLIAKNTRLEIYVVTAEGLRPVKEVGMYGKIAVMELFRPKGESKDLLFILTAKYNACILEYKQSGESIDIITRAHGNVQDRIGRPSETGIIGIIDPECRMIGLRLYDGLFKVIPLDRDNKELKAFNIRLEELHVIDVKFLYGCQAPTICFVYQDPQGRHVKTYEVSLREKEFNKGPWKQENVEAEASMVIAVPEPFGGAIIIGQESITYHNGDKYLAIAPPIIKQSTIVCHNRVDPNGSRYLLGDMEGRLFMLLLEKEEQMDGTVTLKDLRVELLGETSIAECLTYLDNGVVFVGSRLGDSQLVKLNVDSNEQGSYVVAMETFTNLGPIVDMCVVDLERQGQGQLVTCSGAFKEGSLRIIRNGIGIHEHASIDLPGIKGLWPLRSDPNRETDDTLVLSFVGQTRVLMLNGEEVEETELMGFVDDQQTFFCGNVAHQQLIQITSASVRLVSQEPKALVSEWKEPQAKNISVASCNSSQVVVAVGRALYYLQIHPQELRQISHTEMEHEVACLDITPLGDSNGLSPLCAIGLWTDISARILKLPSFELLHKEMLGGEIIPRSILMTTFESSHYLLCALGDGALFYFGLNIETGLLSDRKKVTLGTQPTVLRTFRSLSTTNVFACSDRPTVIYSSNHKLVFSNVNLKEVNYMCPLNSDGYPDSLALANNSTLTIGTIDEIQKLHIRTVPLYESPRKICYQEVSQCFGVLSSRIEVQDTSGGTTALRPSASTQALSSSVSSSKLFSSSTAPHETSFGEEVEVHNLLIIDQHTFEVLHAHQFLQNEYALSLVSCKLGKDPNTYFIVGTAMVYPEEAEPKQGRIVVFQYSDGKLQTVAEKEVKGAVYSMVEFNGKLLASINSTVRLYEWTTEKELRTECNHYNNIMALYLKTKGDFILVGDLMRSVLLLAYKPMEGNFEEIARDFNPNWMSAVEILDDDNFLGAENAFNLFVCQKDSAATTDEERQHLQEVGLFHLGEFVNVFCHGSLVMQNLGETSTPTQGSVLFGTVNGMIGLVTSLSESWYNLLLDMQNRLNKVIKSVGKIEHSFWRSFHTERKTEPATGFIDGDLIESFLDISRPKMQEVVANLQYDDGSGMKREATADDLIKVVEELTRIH
UniProt O94776: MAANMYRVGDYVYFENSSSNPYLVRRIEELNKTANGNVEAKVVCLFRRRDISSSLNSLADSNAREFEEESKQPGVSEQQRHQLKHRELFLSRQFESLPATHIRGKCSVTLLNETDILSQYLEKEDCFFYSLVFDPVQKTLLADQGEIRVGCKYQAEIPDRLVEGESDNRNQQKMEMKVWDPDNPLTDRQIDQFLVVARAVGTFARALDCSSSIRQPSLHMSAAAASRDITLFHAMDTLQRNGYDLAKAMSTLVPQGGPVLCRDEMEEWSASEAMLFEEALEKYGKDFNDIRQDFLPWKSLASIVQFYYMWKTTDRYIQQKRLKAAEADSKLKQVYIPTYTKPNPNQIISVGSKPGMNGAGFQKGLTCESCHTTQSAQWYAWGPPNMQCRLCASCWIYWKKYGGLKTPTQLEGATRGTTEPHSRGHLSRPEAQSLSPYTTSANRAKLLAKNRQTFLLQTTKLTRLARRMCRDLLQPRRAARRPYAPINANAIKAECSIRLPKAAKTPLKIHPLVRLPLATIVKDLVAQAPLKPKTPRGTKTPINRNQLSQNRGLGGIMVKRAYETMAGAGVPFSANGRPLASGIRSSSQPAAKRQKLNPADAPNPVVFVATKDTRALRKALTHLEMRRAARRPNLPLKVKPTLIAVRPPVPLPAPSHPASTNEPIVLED
UniProt Q92769: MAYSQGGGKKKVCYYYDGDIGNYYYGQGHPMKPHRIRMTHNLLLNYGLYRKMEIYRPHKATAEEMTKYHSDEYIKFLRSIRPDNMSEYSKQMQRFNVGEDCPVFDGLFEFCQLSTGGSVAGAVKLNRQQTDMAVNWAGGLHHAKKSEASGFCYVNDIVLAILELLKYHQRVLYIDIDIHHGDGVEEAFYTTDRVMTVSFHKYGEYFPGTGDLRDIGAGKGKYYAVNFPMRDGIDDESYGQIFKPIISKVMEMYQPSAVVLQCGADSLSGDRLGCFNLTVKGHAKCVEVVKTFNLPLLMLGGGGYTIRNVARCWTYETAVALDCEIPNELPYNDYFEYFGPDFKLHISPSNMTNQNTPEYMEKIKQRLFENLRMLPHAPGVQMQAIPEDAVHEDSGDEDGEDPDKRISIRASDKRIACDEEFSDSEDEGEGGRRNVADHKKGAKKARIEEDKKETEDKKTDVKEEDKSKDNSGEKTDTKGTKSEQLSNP
UniProt O95863: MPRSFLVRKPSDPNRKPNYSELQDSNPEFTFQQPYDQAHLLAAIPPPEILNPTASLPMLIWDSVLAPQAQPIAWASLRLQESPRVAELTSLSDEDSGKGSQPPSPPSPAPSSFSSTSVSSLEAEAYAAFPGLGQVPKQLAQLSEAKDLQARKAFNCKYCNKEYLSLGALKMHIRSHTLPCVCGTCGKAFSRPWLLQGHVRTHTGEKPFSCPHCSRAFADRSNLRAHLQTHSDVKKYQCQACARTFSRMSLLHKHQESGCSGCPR
UniProt O15379: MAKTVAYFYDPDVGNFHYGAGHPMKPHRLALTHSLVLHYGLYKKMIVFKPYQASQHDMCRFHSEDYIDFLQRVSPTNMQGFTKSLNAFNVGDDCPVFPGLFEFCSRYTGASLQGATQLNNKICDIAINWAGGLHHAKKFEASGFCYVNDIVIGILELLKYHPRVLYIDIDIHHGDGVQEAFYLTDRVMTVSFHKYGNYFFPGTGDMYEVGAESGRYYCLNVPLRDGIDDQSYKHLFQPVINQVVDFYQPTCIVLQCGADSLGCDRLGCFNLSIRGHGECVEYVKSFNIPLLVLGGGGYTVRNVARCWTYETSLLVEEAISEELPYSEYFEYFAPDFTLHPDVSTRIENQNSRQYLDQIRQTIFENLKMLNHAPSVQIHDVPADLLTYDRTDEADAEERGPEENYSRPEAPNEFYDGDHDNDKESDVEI
UniProt Q13547: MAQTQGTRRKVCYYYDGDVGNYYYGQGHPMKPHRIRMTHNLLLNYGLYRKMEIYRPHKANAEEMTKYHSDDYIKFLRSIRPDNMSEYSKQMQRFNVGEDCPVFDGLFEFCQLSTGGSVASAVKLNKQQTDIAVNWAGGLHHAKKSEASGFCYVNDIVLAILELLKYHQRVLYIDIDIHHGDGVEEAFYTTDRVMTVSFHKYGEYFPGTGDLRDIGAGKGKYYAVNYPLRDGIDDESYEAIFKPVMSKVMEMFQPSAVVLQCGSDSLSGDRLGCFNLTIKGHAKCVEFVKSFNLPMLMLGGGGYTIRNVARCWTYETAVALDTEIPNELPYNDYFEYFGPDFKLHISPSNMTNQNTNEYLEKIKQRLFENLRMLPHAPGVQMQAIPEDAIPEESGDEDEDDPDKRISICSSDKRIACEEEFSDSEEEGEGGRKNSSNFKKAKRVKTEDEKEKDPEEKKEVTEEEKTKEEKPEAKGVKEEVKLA

[7] = target: GST-fused CUL4B (UniProt Q13620); assay: as above
[8] = target: CUL4B (endogenous) (human (endogenous in MCF-7, MDA-MB-231, HEK293T)) (UniProt Q13620); assay: co-IP; endogenous proteins, MCF-7 whole-cell lysates (50 mM Tris-HCl pH 8.0, 150 mM NaCl, 0.5% NP40); IP with anti-CUL4B, anti-DDB1 or anti-ROC1, 12 h at 4 °C, immunoblot; remark: listed apart in the source
[9] = target: DDB1 (endogenous) (human (endogenous in MCF-7, MDA-MB-231, HEK293T)) (UniProt Q16531); assay: as above; remark: listed apart in the source
[10] = target: CUL4B (endogenous) (human (endogenous in MCF-7, MDA-MB-231, HEK293T)) (UniProt Q13620); assay: co-IP; endogenous proteins, MDA-MB-231 cells; IP with anti-CUL4B, immunoblot

binding [1]: binds
binding [2]: binds
Molecule: HDAC2 (endogenous) (from UniProt Q92769 1-488) (enzyme)

binding [3]: binds
binding [4]: binds
binding [5]: binds
binding [6]: no binding
Molecule: Snail, in vitro transcribed/translated (from UniProt O95863 1-264)

binding [7]: binds
Molecule: HDAC2, in vitro transcribed/translated (from UniProt Q92769 1-488) (enzyme)

binding [4]: binds
binding [5]: binds
binding [6]: no binding
Molecule: DDB1, in vitro transcribed/translated (from UniProt Q16531 1-1140)

binding [7]: binds
Molecule: HDAC3, in vitro transcribed/translated (from UniProt O15379 1-428) (enzyme)

binding [4]: binds
binding [5]: binds
binding [6]: no binding
Molecule: CUL4B, in vitro transcribed/translated (from UniProt Q13620 1-913)

binding [1]: binds
binding [2]: binds
Molecule: HDAC3 (endogenous) (from UniProt O15379 1-428) (enzyme)

binding [1]: binds
binding [2]: binds
Molecule: HDAC1 (endogenous) (from UniProt Q13547 1-482) (enzyme)

binding [7]: binds
Molecule: HDAC1, in vitro transcribed/translated (from UniProt Q13547 1-482) (enzyme)

binding [8]: binds
binding [9]: binds
B1: TBL1 (endogenous) (protein, UniProt O60907 1-577)
chain: MTELAGASSSCCHRPAGRGAMQSVLHHFQRLRGREGGSHFINTSSPRGEAKMSITSDEVNFLVYRYLQESGFSHSAFTFGIESHISQSNINGTLVPPAALISILQKGLQYVEAEISINEDGTVFDGRPIESLSLIDAVMPDVVQTRQQAFREKLAQQQASAAAAAAAATAAATAATTTSAGVSHQNPSKNREATVNGEENRAHSVNNHAKPMEIDGEVEIPSSKATVLRGHESEVFICAWNPVSDLLASGSGDSTARIWNLNENSNGGSTQLVLRHCIREGGHDVPSNKDVTSLDWNTNGTLLATGSYDGFARIWTEDGNLASTLGQHKGPIFALKWNRKGNYILSAGVDKTTIIWDAHTGEAKQQFPFHSAPALDVDWQNNTTFASCSTDMCIHVCRLGCDRPVKTFQGHTNEVNAIKWDPSGMLLASCSDDMTLKIWSMKQEVCIHDLQAHNKEIYTIKWSPTGPATSNPNSNIMLASASFDSTVRLWDIERGVCTHTLTKHQEPVYSVAFSPDGKYLASGSFDKCVHIWNTQSGNLVHSYRGTGGIFEVCWNARGDKVGASASDGSVCVLDLRK

binding [3]: binds
B2: TBL1, in vitro transcribed/translated (protein, UniProt O60907 1-577)
chain: MTELAGASSSCCHRPAGRGAMQSVLHHFQRLRGREGGSHFINTSSPRGEAKMSITSDEVNFLVYRYLQESGFSHSAFTFGIESHISQSNINGTLVPPAALISILQKGLQYVEAEISINEDGTVFDGRPIESLSLIDAVMPDVVQTRQQAFREKLAQQQASAAAAAAAATAAATAATTTSAGVSHQNPSKNREATVNGEENRAHSVNNHAKPMEIDGEVEIPSSKATVLRGHESEVFICAWNPVSDLLASGSGDSTARIWNLNENSNGGSTQLVLRHCIREGGHDVPSNKDVTSLDWNTNGTLLATGSYDGFARIWTEDGNLASTLGQHKGPIFALKWNRKGNYILSAGVDKTTIIWDAHTGEAKQQFPFHSAPALDVDWQNNTTFASCSTDMCIHVCRLGCDRPVKTFQGHTNEVNAIKWDPSGMLLASCSDDMTLKIWSMKQEVCIHDLQAHNKEIYTIKWSPTGPATSNPNSNIMLASASFDSTVRLWDIERGVCTHTLTKHQEPVYSVAFSPDGKYLASGSFDKCVHIWNTQSGNLVHSYRGTGGIFEVCWNARGDKVGASASDGSVCVLDLRK

binding [10]: binds
B3: Twist2 (endogenous) (protein, UniProt Q8WVJ9 1-160)
chain: MEEGSSSPVSPVDSLGTSEEELERQPKRFGRKRRYSKKSSEDGSPTPGKRGKKGSPSAQSFEELQSQRILANVRERQRTQSLNEAFAALRKIIPTLPSDKLSKIQTLKLAARYIDFLYQVLQSDEMDNKMTSCSYVAHERLSYAFSVWRMEGAWSMSASH

binding [3]: binds
binding [4]: binds
binding [5]: binds
binding [6]: no binding
B4: ZEB2, in vitro transcribed/translated (protein, UniProt O60315 1-1214)
chain: MKQPIMADGPRCKRRKQANPRRKNVVNYDNVVDTGSETDEEDKLHIAEDDGIANPLDQETSPASVPNHESSPHVSQALLPREEEEDEIREGGVEHPWHNNEILQASVDGPEEMKEDYDTMGPEATIQTAINNGTVKNANCTSDFEEYFAKRKLEERDGHAVSIEEYLQRSDTAIIYPEAPEELSRLGTPEANGQEENDLPPGTPDAFAQLLTCPYCDRGYKRLTSLKEHIKYRHEKNEENFSCPLCSYTFAYRTQLERHMVTHKPGTDQHQMLTQGAGNRKFKCTECGKAFKYKHHLKEHLRIHSGEKPYECPNCKKRFSHSGSYSSHISSKKCIGLISVNGRMRNNIKTGSSPNSVSSSPTNSAITQLRNKLENGKPLSMSEQTGLLKIKTEPLDFNDYKVLMATHGFSGTSPFMNGGLGATSPLGVHPSAQSPMQHLGVGMEAPLLGFPTMNSNLSEVQKVLQIVDNTVSRQKMDCKAEEISKLKGYHMKDPCSQPEEQGVTSPNIPPVGLPVVSHNGATKSIIDYTLEKVNEAKACLQSLTTDSRRQISNIKKEKLRTLIDLVTDDKMIENHNISTPFSCQFCKESFPGPIPLHQHERYLCKMNEEIKAVLQPHENIVPNKAGVFVDNKALLLSSVLSEKGMTSPINPYKDHMSVLKAYYAMNMEPNSDELLKISIAVGLPQEFVKEWFEQRKVYQYSNSRSPSLERSSKPLAPNSNPPTKDSLLPRSPVKPMDSITSPSIAELHNSVTNCDPPLRLTKPSHFTNIKPVEKLDHSRSNTPSPLNLSSTSSKNSHSSSYTPNSFSSEELQAEPLDLSLPKQMKEPKSIIATKNKTKASSISLDHNSVSSSSENSDEPLNLTFIKKEFSNSNNLDNKSTNPVFSMNPFSAKPLYTALPPQSAFPPATFMPPVQTSIPGLRPYPGLDQMSFLPHMAYTYPTGAATFADMQQRRKYQRKQGFQGELLDGAQDYMSGLDDMTDSDSCLSRKKIKKTESGMYACDLCDKTFQKSSSLLRHKYEHTGKRPHQCQICKKAFKHKHHLIEHSRLHSGEKPYQCDKCGKRFSHSGSYSQHMNHRYSYCKREAEEREAAEREAREKGHLEPTELLMNRAYLQSITPQGYSDSEERESMPRDGESEKEHEKEGEDGYGKLGRQDGDEEFEEEEEESENKSMDTDPETIRDEEETGDHSMDDSSEDGKMETKSDHEEDNMEDGM
